The list shows a part of the results.
Assays:
Assay in all cases: log2 fold change, soluble protein after heating vs DMSO (PISA); higher = thermal stabilisation; K562 cells, 10 uM, 30 min; active = over 0.2 and 3.5 SD of the protein, either way, in both replicates (recomputed)
[1] = compound: CS(=O)(=O)c1ccc(-c2cnc(N)c(C(=O)Nc3ccccc3)n2)cc1
Method in brief: (§1)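 Thermal stability values are relative to control samples and come from duplicates. They are expressed as log2 fold changes. For measurement, K562 cells (2×10^6 cells/mL) received 10 μM compound for 30 min, and aliquots were heated for 3 min over 48°C-58°C, pooled, and extracted at 4°C in PBS with 0.5% NP-40. Soluble protein, the supernatant after 21,000xg for 90 min, was quantified by TMTpro 16plex LC-MS/MS with equalised channel sums.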

Sequences of proteins named here, by UniProt entry; tags and fusion partners are left off. A change or cut given only in a name is not applied to a line headed by its entry.
UniProt Q15005: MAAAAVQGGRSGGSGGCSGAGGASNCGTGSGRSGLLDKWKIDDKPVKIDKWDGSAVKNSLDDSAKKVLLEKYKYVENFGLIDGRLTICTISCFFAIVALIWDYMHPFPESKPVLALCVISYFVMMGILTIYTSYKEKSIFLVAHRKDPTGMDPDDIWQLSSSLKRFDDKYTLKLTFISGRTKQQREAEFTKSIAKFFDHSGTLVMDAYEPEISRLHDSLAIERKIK
UniProt Q9NZD8: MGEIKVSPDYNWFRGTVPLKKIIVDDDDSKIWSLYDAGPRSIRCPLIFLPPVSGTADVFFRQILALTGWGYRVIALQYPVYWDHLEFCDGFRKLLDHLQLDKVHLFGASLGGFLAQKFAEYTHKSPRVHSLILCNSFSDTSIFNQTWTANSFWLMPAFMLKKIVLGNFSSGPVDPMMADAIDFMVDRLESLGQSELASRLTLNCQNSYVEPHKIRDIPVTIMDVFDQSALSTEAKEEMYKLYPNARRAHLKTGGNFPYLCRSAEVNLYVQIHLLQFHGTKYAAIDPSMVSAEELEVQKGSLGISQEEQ
UniProt O95772: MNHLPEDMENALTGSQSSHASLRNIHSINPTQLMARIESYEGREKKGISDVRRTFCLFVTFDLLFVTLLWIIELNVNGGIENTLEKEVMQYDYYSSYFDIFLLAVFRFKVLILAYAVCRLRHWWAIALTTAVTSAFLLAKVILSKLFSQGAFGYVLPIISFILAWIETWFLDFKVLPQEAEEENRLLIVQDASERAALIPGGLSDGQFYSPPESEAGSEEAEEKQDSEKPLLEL
UniProt Q9UNL2: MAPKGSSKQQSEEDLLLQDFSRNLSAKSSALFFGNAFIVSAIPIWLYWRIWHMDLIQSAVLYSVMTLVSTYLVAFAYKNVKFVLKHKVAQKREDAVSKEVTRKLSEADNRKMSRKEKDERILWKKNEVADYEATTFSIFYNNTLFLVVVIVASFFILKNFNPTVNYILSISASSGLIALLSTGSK
UniProt Q6ZUB1: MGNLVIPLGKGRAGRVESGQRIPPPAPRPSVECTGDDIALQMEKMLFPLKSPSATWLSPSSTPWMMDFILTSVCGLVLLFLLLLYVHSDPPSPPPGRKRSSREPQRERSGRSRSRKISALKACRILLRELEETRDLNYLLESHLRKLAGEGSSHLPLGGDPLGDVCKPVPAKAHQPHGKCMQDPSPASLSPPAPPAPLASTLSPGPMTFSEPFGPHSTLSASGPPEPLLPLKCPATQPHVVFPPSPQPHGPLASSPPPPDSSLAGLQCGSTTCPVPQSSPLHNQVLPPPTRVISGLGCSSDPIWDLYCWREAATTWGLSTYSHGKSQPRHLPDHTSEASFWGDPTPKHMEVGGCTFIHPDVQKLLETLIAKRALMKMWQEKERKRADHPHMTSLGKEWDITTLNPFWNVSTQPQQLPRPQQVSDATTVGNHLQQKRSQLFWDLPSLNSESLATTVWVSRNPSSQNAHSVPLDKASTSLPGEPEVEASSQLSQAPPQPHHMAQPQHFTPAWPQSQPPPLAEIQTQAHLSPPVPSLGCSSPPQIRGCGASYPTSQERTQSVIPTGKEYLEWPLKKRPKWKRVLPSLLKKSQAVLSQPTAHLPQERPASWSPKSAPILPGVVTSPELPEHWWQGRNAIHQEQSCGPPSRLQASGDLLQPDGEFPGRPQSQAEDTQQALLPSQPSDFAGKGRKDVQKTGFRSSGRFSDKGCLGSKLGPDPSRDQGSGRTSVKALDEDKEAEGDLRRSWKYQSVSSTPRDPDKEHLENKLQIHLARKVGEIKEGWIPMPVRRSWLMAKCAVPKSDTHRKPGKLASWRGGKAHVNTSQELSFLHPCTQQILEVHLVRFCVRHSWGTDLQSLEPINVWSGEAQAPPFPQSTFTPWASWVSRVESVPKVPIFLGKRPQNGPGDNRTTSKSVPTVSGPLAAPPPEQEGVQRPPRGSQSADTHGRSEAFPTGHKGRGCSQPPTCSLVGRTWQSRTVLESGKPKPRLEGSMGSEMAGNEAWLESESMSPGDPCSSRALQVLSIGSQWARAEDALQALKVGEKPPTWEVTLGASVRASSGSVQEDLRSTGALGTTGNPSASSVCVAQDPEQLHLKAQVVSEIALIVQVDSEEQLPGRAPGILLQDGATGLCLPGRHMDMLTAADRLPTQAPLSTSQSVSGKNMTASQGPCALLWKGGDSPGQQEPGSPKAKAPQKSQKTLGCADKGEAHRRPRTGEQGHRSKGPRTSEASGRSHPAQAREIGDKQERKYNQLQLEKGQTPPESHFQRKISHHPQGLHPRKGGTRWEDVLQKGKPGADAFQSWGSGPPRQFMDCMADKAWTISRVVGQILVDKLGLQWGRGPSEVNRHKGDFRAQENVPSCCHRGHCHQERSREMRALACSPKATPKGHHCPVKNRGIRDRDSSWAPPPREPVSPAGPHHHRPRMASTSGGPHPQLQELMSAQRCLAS
UniProt Q16385, whole entry, looked up: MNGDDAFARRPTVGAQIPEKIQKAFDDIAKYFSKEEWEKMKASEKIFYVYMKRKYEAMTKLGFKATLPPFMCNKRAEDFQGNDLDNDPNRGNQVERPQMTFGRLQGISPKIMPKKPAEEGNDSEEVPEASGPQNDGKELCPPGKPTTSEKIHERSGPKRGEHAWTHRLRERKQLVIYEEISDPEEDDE
UniProt P61647: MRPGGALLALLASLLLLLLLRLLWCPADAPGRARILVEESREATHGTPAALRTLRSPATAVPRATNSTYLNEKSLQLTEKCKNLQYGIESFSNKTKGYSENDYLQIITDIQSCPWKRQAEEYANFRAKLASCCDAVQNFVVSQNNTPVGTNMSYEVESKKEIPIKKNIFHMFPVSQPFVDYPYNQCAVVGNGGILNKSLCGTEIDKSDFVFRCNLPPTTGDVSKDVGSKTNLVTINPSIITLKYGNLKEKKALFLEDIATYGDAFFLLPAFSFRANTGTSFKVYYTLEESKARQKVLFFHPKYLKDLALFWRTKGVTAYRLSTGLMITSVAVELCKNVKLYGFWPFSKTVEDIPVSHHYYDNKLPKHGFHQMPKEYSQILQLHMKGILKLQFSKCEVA
UniProt P05455: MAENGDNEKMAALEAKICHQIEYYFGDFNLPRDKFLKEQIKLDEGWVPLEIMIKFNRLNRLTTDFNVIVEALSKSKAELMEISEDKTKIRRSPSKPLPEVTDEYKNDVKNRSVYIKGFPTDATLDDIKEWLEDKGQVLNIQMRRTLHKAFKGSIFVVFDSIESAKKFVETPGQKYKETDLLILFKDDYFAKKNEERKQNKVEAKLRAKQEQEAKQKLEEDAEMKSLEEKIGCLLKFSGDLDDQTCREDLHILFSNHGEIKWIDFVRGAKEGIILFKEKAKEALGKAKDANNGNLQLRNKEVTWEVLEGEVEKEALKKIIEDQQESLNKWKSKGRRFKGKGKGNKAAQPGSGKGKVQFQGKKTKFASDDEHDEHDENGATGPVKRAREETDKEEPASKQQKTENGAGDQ
UniProt Q9BUA3: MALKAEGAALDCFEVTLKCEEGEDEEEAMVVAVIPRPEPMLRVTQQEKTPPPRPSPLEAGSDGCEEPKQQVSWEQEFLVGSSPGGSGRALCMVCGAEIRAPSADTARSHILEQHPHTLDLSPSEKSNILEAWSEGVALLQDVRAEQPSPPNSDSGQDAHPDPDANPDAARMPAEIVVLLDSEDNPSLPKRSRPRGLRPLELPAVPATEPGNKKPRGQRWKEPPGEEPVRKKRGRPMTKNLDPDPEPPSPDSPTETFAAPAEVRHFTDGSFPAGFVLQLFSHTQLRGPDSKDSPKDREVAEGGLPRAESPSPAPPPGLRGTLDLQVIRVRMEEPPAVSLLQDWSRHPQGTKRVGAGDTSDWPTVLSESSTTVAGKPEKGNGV
UniProt Q14849, whole entry, looked up: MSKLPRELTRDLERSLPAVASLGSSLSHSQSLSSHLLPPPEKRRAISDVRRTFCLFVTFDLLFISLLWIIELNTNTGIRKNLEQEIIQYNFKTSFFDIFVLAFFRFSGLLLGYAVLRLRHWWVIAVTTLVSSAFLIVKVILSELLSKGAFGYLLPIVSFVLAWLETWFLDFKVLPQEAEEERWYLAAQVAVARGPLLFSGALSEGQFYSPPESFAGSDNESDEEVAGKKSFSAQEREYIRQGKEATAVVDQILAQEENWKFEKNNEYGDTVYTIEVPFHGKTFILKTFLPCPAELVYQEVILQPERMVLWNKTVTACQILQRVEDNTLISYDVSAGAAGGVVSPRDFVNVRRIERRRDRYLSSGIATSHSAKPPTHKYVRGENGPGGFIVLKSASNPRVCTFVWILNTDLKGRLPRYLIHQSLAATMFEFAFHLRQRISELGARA
UniProt Q9P289: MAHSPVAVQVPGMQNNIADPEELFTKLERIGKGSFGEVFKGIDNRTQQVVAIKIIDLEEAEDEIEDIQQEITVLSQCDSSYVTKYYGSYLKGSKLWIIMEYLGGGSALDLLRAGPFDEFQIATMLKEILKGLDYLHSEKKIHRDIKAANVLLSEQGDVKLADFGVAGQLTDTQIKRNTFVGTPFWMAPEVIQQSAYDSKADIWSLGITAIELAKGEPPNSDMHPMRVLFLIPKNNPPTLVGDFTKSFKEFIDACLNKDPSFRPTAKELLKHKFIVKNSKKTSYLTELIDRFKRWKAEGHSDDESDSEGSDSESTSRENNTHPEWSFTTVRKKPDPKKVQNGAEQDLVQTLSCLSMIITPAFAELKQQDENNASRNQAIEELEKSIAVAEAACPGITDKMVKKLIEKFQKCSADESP
UniProt Q8N1F8: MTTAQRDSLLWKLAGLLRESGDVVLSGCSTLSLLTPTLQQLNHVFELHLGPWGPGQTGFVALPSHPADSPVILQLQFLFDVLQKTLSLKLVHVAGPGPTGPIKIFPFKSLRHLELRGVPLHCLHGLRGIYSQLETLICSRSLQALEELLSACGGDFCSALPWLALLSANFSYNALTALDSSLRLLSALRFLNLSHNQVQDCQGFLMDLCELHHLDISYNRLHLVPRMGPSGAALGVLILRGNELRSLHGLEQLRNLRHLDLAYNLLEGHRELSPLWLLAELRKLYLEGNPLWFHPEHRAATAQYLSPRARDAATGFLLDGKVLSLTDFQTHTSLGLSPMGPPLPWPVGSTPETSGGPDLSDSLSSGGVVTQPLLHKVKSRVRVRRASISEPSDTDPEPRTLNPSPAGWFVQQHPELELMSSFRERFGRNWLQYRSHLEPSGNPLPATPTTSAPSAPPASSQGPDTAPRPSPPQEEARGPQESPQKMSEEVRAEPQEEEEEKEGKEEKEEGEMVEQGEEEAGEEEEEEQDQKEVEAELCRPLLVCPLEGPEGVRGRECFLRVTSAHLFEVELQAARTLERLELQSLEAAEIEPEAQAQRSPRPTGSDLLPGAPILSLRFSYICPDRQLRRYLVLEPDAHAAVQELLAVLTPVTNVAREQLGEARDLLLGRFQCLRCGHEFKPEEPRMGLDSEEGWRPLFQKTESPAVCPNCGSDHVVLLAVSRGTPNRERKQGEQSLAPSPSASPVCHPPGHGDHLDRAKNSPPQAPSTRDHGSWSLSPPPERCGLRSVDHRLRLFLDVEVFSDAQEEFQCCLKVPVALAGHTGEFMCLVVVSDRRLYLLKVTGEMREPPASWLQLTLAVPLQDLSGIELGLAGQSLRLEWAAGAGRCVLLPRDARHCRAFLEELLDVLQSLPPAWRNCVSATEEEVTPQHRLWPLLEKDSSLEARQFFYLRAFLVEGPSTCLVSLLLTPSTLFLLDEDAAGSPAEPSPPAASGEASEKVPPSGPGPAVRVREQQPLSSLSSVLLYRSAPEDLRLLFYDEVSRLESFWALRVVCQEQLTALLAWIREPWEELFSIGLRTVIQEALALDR
UniProt P30626: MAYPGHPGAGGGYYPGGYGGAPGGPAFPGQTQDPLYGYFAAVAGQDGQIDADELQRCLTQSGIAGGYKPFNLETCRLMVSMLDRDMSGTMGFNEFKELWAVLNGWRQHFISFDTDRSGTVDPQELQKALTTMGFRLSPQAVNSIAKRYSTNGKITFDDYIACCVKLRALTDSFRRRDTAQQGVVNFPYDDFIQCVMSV
UniProt Q9UHB9: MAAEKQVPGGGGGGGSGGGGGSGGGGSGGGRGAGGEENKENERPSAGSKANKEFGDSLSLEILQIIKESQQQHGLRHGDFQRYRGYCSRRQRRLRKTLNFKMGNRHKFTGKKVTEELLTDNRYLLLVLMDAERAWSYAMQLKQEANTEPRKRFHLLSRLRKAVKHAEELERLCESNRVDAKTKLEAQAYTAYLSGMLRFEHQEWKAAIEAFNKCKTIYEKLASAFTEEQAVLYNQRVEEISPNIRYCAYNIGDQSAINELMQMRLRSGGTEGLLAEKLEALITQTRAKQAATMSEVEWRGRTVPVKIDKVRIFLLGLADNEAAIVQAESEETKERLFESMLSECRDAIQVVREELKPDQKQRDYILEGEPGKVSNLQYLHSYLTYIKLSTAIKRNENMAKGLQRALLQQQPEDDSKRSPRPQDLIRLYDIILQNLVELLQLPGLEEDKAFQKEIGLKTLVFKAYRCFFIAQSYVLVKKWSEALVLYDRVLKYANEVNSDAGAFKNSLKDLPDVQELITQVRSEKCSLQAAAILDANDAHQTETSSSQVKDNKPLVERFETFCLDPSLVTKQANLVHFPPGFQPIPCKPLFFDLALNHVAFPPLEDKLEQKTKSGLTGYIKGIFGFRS

crizotinib = compound: C[C@@H](Oc1cc(-c2cnn(C3CCNCC3)c2)cnc1N)c1c(Cl)ccc(F)c1Cl [crizotinib]
Method in brief: as §1

[2] = compound: C[C@@H]1COCCN1C2=NC(=NC(=C2)C3(CC3)S(=O)(=O)C)C4=C5C=CNC5=CC=C4
Method in brief: as §1

[3] = compound: C[C@H](C1=CC=C(C=C1)C(=O)NC2=C3C=CNC3=NC=C2)N
Method in brief: as §1

gandotinib = compound: Cc1cc(Nc2cc(CN3CCOCC3)c3nc(C)c(Cc4ccc(Cl)cc4F)n3n2)n[nH]1 [gandotinib]
Method in brief: as §1

[4] = compound: Cc1cc(SCc2sc(-c3ccc(C(F)(F)F)cc3)nc2C)ccc1OCC(=O)O
Method in brief: as §1

doramapimod = compound: Cc1ccc(-n2nc(C(C)(C)C)cc2NC(=O)Nc2ccc(OCCN3CCOCC3)c3ccccc23)cc1 [doramapimod]
Method in brief: as §1

ispinesib = compound: Cc1ccc(C(=O)N(CCCN)[C@@H](c2nc3cc(Cl)ccc3c(=O)n2Cc2ccccc2)C(C)C)cc1 [ispinesib]
Method in brief: as §1

bafetinib = compound: Cc1ccc(NC(=O)c2ccc(CN3CC[C@H](N(C)C)C3)c(C(F)(F)F)c2)cc1Nc1nccc(-c2cncnc2)n1 [bafetinib]
Method in brief: as §1

[5] = compound: Cc1cccc(CC(=O)N2CCc3c2ccc(-c2cn(C)c4ncnc(N)c24)c3F)n1
Method in brief: as §1

nilotinib = compound: Cc1cn(-c2cc(NC(=O)c3ccc(C)c(Nc4nccc(-c5cccnc5)n4)c3)cc(C(F)(F)F)c2)cn1 [nilotinib]
Method in brief: as §1

[6] = compound: Cc1nc(Nc2n[nH]c3c2CN(C(=O)N[C@H](CN(C)C)c2ccccc2)C3(C)C)c2sccc2n1
Method in brief: as §1

dasatinib = compound: Cc1nc(Nc2ncc(C(=O)Nc3c(C)cccc3Cl)s2)cc(N2CCN(CCO)CC2)n1 [dasatinib]
Method in brief: as §1

[7] = compound: Cc1ncc(-c2ccnc(Nc3ccc(S(C)(=O)=O)cc3)n2)n1C(C)C
Method in brief: as §1

[8] = compound: Cn1cc(-c2ccc3c(c2)CCN3C(=O)Cc2cccc(C(F)(F)F)c2)c2c(N)ncnc21
Method in brief: as §1

[9] = compound: Cn1cc(-c2ccc3nnc(C(F)(F)c4ccc5ncccc5c4)n3n2)cn1
Method in brief: as §1

tipifarnib = compound: Cn1cncc1[C@@](N)(c1ccc(Cl)cc1)c1ccc2c(c1)c(-c1cccc(Cl)c1)cc(=O)n2C [tipifarnib]
Method in brief: as §1

mubritinib = compound: FC(F)(F)c1ccc(/C=C/c2nc(COc3ccc(CCCCn4ccnn4)cc3)co2)cc1 [mubritinib]
Method in brief: as §1

duvelisib = compound: C[C@H](Nc1ncnc2nc[nH]c12)c1cc2cccc(Cl)c2c(=O)n1-c1ccccc1 [duvelisib]
Method in brief: as §1

tozasertib = compound: Cc1cc(Nc2cc(N3CCN(C)CC3)nc(Sc3ccc(NC(=O)C4CC4)cc3)n2)n[nH]1 [tozasertib]
Method in brief: as §1

Row | Target | log2 fold change [1] | log2 fold change (crizotinib) | log2 fold change [2] | log2 fold change [3] | log2 fold change (gandotinib) | log2 fold change [4] | log2 fold change (doramapimod) | log2 fold change (ispinesib) | log2 fold change (bafetinib) | log2 fold change [5] | log2 fold change (nilotinib) | log2 fold change [6] | log2 fold change (dasatinib) | log2 fold change [7] | log2 fold change [8] | log2 fold change [9] | log2 fold change (tipifarnib) | log2 fold change (mubritinib) | log2 fold change (duvelisib) | log2 fold change (tozasertib)
1 | SPCS2 (UniProt Q15005) | inactive: 0.032 | inactive: 0.001 | inactive: 0.02 | inactive: -0.036 | inactive: -0.007 | inactive: -0.013 | inactive: 0.047 | inactive: 0.085 | inactive: -0.057 | inactive: 0.003 | inactive: 0.014 | inactive: -0.034 | inactive: 0 | inactive: 0 | inactive: 0.053 | inactive: 0.025 | inactive: -0.035 | inactive: 0.037 | – | –
2 | SPINT1 (UniProt O43278) | inactive: 0.076 | inactive: -0.038 | inactive: -0.008 | – | inactive: -0.123 | – | inactive: 0.03 | inactive: 0.249 | – | inactive: 0 | – | – | – | – | – | inactive: 0.24 | inactive: 0.127 | – | – | –
3 | SPG21 (UniProt Q9NZD8) | inactive: 0.077 | inactive: -0.24 | inactive: 0.053 | inactive: 0.013 | inactive: 0 | inactive: 0.052 | inactive: 0.091 | inactive: -0.093 | inactive: 0.158 | inactive: -0.129 | inactive: -0.173 | inactive: -0.06 | inactive: -0.087 | inactive: 0.171 | inactive: 0.022 | inactive: 0.027 | inactive: -0.115 | inactive: -0.042 | – | –
4 | STARD3NL (UniProt O95772) | inactive: -0.011 | active: -0.448 | inactive: 0.055 | inactive: -0.067 | inactive: -0.14 | inactive: -0.058 | inactive: 0.063 | inactive: -0.256 | inactive: 0.011 | inactive: -0.008 | inactive: -0.007 | inactive: 0.027 | inactive: 0.075 | inactive: -0.001 | inactive: -0.048 | inactive: 0.025 | inactive: -0.064 | inactive: -0.006 | – | –
5 | SSR3 isoform 2 (UniProt Q9UNL2) | inactive: 0.021 | inactive: -0.043 | inactive: 0.05 | active: -0.458 | inactive: 0.281 | inactive: -0.038 | inactive: 0.034 | inactive: 0.021 | inactive: -0.064 | inactive: 0.034 | inactive: -0.006 | inactive: 0.029 | inactive: 0.006 | inactive: -0.047 | inactive: 0.107 | inactive: -0.167 | inactive: 0.084 | inactive: 0.049 | – | –
6 | SRCAP (UniProt Q6ZRS2) | inactive: -0.015 | inactive: -0.276 | – | inactive: -0.111 | inactive: -0.069 | inactive: -0.035 | inactive: 0.051 | inactive: 0 | inactive: -0.057 | inactive: -0.001 | inactive: 0.072 | inactive: 0.152 | inactive: -0.038 | inactive: -0.007 | inactive: -0.061 | inactive: 0.037 | inactive: 0.083 | inactive: 0.05 | – | –
7 | SPATA31E1 (UniProt Q6ZUB1) | inactive: 0.089 | inactive: 0.156 | – | inactive: 0.305 | inactive: 0.106 | inactive: -0.139 | inactive: 0.021 | inactive: -0.068 | inactive: -0.092 | inactive: -0.151 | inactive: -0.144 | inactive: 0.019 | inactive: 0.233 | inactive: -0.133 | inactive: -0.019 | inactive: 0.067 | inactive: 0.112 | inactive: -0.022 | inactive: 0.32 | –
8 | SSX2 (UniProt Q16385) | inactive: -0.024 | inactive: 0.062 | inactive: 0.05 | inactive: 0.053 | inactive: -0.003 | inactive: -0.009 | inactive: -0.043 | inactive: -0.029 | inactive: -0.098 | inactive: -0.011 | inactive: 0.003 | inactive: -0.061 | inactive: 0.014 | inactive: -0.042 | inactive: -0.039 | inactive: 0.012 | inactive: -0.015 | inactive: -0.048 | – | –
9 | STAT2 (UniProt P52630) | inactive: 0.125 | inactive: -0.055 | – | inactive: 0.248 | inactive: 0.068 | inactive: 0.161 | inactive: 0.076 | inactive: -0.632 | inactive: 0.161 | inactive: 0.199 | – | – | inactive: -0.025 | – | inactive: -0.403 | inactive: -0.235 | – | inactive: -0.131 | inactive: -0.063 | inactive: -0.213
10 | ST8SIA6 (UniProt P61647) | inactive: 0.217 | inactive: 0.105 | – | – | inactive: -0.038 | – | inactive: 0.114 | – | inactive: -0.211 | inactive: -0.032 | – | – | – | – | – | – | – | – | – | –
11 | STAM2 (UniProt O75886) | inactive: 0.114 | inactive: -0.008 | inactive: 0.041 | inactive: -0.049 | inactive: -0.126 | inactive: 0.028 | inactive: -0.022 | inactive: -0.049 | inactive: -0.067 | inactive: 0.014 | inactive: 0.007 | inactive: -0.077 | inactive: 0.044 | inactive: -0.008 | inactive: 0.016 | inactive: 0.009 | inactive: -0.012 | inactive: 0.019 | – | –
12 | SRRD (UniProt Q9UH36) | inactive: 0.093 | inactive: 0.149 | inactive: 0.106 | – | – | – | inactive: 0.221 | – | inactive: 0.064 | – | inactive: -0.085 | inactive: -0.147 | – | inactive: -0.036 | – | – | inactive: 0.077 | inactive: 0.408 | – | inactive: -0.063
13 | SRC isoform 2 (UniProt P12931) | inactive: -0.248 | inactive: -0.154 | inactive: 0.229 | inactive: 0.07 | inactive: -0.056 | inactive: 0.101 | inactive: -0.052 | inactive: -0.068 | inactive: -0.054 | inactive: -0.037 | inactive: -0.041 | inactive: -0.499 | – | inactive: -0.136 | inactive: 0.008 | inactive: -0.163 | inactive: 0.005 | inactive: 0.031 | – | –
14 | SSB (UniProt P05455) | inactive: -0.159 | inactive: 0.022 | inactive: -0.085 | inactive: -0.05 | inactive: -0.103 | inactive: 0.003 | inactive: 0.013 | inactive: -0.02 | inactive: -0.022 | inactive: -0.018 | inactive: -0.057 | inactive: -0.125 | inactive: -0.06 | inactive: -0.123 | inactive: -0.048 | inactive: -0.02 | inactive: 0.051 | inactive: -0.111 | – | –
15 | SPINDOC (UniProt Q9BUA3) | inactive: 0.09 | inactive: 0.104 | inactive: -0.059 | inactive: -0.074 | inactive: -0.001 | inactive: 0.053 | inactive: 0.097 | inactive: -0.008 | inactive: -0.149 | inactive: -0.031 | inactive: 0.049 | active: -0.458 | inactive: -0.105 | inactive: -0.127 | inactive: -0.085 | inactive: -0.044 | inactive: 0.046 | inactive: 0.04 | – | –
16 | STARD3 (UniProt Q14849) | inactive: 0.017 | active: -0.36 | inactive: 0.194 | inactive: -0.043 | inactive: 0.098 | inactive: -0.015 | inactive: 0.043 | active: -0.559 | inactive: -0.097 | inactive: 0.064 | inactive: 0.215 | inactive: 0.218 | inactive: 0.284 | inactive: 0.068 | inactive: 0.119 | inactive: -0.018 | inactive: 0.022 | inactive: -0.067 | – | –
17 | STK26 (UniProt Q9P289) | inactive: -0.019 | active: -0.308 | inactive: 0.123 | inactive: 0.049 | inactive: -0.061 | inactive: -0.01 | inactive: -0.034 | inactive: -0.146 | inactive: -0.057 | inactive: 0.026 | inactive: -0.089 | inactive: 0.198 | active: -0.319 | inactive: -0.057 | inactive: -0.058 | inactive: 0.015 | inactive: -0.036 | inactive: -0.036 | – | –
18 | STK11IP (UniProt Q8N1F8) | inactive: -0.21 | active: -0.869 | inactive: -0.078 | inactive: -0.124 | inactive: -0.002 | inactive: 0.021 | inactive: 0.006 | – | inactive: -0.06 | inactive: 0.111 | inactive: -0.081 | inactive: 0.058 | inactive: -0.19 | inactive: 0.051 | inactive: -0.068 | – | inactive: 0.034 | inactive: -0.071 | – | –
19 | SRI (UniProt P30626) | inactive: -0.061 | inactive: 0.082 | inactive: 0.159 | inactive: -0.139 | inactive: -0.03 | inactive: 0.066 | inactive: -0.032 | active: 0.353 | inactive: -0.001 | inactive: 0.062 | inactive: 0.017 | inactive: 0.001 | inactive: 0.04 | inactive: -0.036 | inactive: 0.113 | inactive: 0.328 | inactive: -0.072 | inactive: 0.01 | – | –
20 | SRP68 (UniProt Q9UHB9) | inactive: 0.004 | inactive: -0.134 | inactive: -0.02 | inactive: 0.15 | inactive: -0.064 | inactive: 0.112 | inactive: 0.029 | inactive: -0.209 | inactive: 0.043 | inactive: 0.054 | inactive: -0.118 | inactive: -0.063 | inactive: -0.098 | inactive: 0.055 | inactive: -0.026 | inactive: -0.08 | inactive: -0.119 | inactive: 0.012 | – | –

Single records, from the list above. Order of values: log2 fold change [1]	log2 fold change (crizotinib)	log2 fold change [2]	log2 fold change [3]	log2 fold change (gandotinib)	log2 fold change [4]	log2 fold change (doramapimod)	log2 fold change (ispinesib)	log2 fold change (bafetinib)	log2 fold change [5]	log2 fold change (nilotinib)	log2 fold change [6]	log2 fold change (dasatinib)	log2 fold change [7]	log2 fold change [8]	log2 fold change [9]	log2 fold change (tipifarnib)	log2 fold change (mubritinib)	log2 fold change (duvelisib)	log2 fold change (tozasertib)
SRP68 (UniProt Q9UHB9) is listed as inactive: 0.004	inactive: -0.134	inactive: -0.02	inactive: 0.15	inactive: -0.064	inactive: 0.112	inactive: 0.029	inactive: -0.209	inactive: 0.043	inactive: 0.054	inactive: -0.118	inactive: -0.063	inactive: -0.098	inactive: 0.055	inactive: -0.026	inactive: -0.08	inactive: -0.119	inactive: 0.012	–	–
SRRD (UniProt Q9UH36) is listed as inactive: 0.093	inactive: 0.149	inactive: 0.106	–	–	–	inactive: 0.221	–	inactive: 0.064	–	inactive: -0.085	inactive: -0.147	–	inactive: -0.036	–	–	inactive: 0.077	inactive: 0.408	–	inactive: -0.063

From the supplement of paper PMC10849652
